Some of the results follow.

By UniProt entry, the sequences of proteins in these tests, tags left out. Where a name states a change or a piece, a line headed by the entry shows the natural chain unless it says otherwise.
UniProt Q92794, whole entry, looked up: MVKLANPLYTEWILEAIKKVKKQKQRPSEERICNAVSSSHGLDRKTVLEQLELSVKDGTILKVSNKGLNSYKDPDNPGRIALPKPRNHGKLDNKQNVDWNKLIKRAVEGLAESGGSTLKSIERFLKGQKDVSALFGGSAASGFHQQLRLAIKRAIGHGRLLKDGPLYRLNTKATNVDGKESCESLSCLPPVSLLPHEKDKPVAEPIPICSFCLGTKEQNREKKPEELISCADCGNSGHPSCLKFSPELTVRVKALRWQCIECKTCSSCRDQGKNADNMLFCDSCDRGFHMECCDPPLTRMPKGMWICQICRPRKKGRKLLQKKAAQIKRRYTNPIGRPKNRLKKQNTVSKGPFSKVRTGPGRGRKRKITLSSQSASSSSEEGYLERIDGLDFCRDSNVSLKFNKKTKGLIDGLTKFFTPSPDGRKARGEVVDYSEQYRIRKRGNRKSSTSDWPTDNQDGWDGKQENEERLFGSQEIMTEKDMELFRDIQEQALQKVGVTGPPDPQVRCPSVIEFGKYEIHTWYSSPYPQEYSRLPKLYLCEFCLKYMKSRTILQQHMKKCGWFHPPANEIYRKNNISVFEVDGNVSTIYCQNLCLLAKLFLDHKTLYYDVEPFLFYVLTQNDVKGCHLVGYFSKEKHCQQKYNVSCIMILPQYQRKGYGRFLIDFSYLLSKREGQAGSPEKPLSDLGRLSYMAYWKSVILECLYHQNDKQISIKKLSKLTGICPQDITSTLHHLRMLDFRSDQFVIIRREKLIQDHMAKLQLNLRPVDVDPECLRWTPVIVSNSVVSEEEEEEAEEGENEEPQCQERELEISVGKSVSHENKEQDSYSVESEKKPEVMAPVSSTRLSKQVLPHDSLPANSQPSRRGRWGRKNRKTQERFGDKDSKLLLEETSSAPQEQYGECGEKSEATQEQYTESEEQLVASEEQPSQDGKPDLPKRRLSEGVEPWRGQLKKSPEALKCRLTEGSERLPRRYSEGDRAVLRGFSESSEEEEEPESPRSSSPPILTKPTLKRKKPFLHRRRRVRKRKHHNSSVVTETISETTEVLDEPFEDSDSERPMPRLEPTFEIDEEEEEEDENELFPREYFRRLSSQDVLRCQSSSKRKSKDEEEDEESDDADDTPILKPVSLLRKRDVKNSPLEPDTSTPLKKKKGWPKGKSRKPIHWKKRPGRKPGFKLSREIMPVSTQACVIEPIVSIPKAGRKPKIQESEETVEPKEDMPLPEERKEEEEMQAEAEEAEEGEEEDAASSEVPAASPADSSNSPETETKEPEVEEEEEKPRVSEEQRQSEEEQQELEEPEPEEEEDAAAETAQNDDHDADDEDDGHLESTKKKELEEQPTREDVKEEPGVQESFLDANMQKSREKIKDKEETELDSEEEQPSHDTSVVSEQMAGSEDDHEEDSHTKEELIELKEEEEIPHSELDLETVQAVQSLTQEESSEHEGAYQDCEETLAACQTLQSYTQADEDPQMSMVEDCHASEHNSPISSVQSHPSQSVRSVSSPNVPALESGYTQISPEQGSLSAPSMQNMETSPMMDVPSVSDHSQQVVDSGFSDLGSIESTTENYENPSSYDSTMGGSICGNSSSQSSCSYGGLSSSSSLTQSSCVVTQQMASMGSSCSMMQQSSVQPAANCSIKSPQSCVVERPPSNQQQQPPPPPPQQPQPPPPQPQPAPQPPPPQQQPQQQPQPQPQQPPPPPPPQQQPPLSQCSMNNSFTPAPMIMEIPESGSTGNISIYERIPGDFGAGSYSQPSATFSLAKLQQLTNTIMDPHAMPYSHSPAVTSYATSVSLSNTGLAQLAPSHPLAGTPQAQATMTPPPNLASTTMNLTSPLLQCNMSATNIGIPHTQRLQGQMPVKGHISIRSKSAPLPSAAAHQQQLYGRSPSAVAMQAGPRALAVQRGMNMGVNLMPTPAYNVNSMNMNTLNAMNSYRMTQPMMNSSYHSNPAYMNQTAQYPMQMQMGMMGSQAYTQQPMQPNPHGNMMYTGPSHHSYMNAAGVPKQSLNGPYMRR
UniProt O00255, whole entry: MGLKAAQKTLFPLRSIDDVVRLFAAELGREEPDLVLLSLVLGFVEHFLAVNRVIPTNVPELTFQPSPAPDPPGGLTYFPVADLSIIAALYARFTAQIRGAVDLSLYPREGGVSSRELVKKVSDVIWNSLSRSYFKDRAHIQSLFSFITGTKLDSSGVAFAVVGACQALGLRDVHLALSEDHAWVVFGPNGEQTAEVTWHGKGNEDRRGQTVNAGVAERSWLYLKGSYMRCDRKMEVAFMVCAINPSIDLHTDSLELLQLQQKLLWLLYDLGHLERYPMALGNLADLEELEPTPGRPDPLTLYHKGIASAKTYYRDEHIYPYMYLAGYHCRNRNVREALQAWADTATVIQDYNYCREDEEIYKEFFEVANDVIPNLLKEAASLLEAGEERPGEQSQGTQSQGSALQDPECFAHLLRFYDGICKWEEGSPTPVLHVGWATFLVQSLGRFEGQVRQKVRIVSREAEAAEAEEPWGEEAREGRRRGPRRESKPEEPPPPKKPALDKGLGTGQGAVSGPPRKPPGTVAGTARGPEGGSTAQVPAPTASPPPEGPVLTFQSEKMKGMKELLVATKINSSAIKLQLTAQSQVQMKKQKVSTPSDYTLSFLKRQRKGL
UniProt Q86U44, whole entry: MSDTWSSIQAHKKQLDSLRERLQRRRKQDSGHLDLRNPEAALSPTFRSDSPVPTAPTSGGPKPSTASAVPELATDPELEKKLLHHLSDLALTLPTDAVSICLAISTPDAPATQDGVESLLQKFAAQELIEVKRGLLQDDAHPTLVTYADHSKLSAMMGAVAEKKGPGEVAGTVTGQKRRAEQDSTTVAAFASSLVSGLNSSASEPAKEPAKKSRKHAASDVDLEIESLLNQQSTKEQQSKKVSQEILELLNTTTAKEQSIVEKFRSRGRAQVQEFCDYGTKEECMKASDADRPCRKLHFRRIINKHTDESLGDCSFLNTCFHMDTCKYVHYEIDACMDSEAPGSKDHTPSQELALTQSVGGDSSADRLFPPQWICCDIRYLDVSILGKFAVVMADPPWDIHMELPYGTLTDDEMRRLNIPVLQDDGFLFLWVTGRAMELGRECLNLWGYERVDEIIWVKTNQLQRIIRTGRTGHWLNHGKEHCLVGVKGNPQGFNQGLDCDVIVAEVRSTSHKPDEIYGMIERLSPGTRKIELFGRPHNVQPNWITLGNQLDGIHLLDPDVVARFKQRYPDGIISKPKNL
UniProt O14880: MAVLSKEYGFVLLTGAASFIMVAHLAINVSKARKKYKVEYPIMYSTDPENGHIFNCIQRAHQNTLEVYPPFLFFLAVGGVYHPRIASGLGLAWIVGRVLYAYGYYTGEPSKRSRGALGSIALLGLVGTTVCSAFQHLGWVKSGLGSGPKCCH
UniProt Q71F56: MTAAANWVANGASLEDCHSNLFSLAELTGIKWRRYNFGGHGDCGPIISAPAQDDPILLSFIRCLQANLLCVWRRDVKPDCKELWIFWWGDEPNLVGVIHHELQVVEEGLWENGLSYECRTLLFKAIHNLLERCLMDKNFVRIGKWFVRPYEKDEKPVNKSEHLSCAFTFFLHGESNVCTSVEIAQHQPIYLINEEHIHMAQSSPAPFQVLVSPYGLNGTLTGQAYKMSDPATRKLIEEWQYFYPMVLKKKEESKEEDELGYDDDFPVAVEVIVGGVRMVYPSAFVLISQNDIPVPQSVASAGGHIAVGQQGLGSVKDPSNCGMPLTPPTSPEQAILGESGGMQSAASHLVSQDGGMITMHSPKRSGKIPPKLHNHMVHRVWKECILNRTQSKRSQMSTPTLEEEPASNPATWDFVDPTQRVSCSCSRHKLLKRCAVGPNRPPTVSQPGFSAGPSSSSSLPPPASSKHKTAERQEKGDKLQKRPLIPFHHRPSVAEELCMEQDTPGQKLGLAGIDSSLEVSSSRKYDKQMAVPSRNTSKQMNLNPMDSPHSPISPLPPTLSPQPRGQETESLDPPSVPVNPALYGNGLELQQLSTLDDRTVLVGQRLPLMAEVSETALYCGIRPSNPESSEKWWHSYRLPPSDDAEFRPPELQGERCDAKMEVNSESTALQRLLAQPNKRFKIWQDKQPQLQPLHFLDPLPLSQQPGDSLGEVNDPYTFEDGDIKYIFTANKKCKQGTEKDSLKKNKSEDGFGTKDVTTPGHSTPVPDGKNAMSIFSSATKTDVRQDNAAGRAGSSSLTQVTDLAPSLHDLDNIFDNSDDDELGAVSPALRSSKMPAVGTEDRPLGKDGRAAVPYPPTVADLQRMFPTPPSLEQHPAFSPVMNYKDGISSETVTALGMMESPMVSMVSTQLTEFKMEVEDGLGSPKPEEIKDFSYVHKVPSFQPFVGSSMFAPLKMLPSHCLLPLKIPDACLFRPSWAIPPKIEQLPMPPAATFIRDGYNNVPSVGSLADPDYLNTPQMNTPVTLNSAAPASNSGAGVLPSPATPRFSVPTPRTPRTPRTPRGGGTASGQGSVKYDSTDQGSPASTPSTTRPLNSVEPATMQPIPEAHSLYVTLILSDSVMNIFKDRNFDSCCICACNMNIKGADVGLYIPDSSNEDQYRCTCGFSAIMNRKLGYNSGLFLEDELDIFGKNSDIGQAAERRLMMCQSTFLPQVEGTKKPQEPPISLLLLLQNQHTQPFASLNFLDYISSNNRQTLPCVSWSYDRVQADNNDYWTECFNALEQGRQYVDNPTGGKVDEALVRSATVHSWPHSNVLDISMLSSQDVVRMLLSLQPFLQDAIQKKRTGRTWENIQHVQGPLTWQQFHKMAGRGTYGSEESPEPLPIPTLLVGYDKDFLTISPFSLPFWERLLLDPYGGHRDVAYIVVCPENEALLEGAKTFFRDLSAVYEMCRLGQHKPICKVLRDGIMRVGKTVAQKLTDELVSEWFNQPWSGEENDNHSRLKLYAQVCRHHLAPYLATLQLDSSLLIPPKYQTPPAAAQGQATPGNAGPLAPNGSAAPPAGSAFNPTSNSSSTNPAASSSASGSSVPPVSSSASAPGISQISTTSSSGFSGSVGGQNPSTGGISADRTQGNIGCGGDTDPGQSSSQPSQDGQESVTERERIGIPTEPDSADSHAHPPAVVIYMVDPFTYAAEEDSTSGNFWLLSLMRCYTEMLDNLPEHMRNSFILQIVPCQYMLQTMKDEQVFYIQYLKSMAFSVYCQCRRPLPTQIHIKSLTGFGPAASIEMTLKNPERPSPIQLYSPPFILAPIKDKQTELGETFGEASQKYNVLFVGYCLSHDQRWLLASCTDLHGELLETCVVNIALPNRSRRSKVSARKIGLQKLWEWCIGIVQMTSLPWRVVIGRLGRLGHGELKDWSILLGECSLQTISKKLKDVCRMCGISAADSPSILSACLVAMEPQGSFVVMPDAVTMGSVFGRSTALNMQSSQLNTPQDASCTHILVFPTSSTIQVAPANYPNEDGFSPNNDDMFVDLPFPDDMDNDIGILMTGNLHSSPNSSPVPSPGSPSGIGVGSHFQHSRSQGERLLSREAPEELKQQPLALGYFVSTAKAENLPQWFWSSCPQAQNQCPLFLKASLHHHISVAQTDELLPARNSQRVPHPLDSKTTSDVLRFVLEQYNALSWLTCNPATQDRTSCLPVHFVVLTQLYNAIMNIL
UniProt O43934: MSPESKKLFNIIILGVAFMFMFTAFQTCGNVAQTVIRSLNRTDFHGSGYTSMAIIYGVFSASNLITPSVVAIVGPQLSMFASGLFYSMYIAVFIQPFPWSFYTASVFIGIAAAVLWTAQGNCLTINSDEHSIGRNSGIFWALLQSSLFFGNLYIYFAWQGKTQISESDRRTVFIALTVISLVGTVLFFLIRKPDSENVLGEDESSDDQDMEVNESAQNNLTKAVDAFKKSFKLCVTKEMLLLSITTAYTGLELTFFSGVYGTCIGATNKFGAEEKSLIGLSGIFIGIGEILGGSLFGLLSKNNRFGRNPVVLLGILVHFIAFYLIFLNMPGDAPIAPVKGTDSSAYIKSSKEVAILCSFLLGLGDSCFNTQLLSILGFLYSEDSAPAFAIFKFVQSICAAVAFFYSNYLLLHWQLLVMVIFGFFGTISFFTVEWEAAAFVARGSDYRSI
UniProt Q13505: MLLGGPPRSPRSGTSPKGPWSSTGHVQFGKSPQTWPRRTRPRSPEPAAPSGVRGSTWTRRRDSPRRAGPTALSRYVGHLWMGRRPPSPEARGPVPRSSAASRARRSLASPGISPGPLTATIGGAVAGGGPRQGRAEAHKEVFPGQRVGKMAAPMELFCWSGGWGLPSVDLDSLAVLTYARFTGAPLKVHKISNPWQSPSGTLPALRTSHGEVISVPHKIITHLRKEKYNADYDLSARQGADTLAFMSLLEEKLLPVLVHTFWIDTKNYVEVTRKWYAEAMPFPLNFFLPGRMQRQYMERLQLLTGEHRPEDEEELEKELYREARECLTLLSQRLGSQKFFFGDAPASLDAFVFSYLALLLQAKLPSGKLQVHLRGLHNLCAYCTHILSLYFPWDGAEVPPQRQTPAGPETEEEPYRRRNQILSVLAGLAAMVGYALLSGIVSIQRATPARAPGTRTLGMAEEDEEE
UniProt P02795: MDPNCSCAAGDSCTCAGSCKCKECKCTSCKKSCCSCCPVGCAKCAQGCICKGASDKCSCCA

Compound in this experiment: COc1ccc(Cn2ccc3cc(C)c(C(=O)NO)cc32)cc1
The experiment in a line: dose-dependent thermal stabilisation call (2D-TPP, DLPTP, 10% FDR) (binary (1 = stabilised)); higher = stabilised by the compound. The note with it: system: HL-60 intact cells; concentration range 0.04-10 µM. The protocol:
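2D thermal proteome profiling in intact HL-60 cells treated with BRD-3811 (0, 0.04, 0.29, 2, 10 uM) for 90 min at 37 C, then heated 3 min at one of 12 temperatures (42-63.9 C). Soluble protein was quantified by TMT10 MS. The value is the DLPTP call of the paper: dose-dependent thermal stabilisation over all temperatures at 10% FDR (F-test of a dose-response against a flat model); one experiment, one call per tested protein.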
For MTF2 (UniProt Q9Y483), the “dose-dependent thermal stabilisation call” value is inactive: 0.

With MTIF3 (UniProt Q9H2K0), the “dose-dependent thermal stabilisation call” value was inactive: 0.

Turning to MYBBP1A (UniProt Q9BQG0), the “dose-dependent thermal stabilisation call” value is inactive: 0.

For MYST3 (UniProt Q92794), the “dose-dependent thermal stabilisation call” value was inactive: 0.

Regarding MEN1 (UniProt O00255), the “dose-dependent thermal stabilisation call” value was inactive: 0.

NACA: the “dose-dependent thermal stabilisation call” value was inactive: 0.

With METTL3 (UniProt Q86U44), the “dose-dependent thermal stabilisation call” value is inactive: 0.

With MGST3 (UniProt O14880), the “dose-dependent thermal stabilisation call” value is inactive: 0.

Consider MRPL53 (UniProt Q96EL3), for which the “dose-dependent thermal stabilisation call” value was inactive: 0.

Consider MED13L (UniProt Q71F56), for which the “dose-dependent thermal stabilisation call” value was inactive: 0.

As to MFSD11 (UniProt O43934), the “dose-dependent thermal stabilisation call” value is inactive: 0.

On to MPDU1 (UniProt O75352), for which the “dose-dependent thermal stabilisation call” value was inactive: 0.

Take MRPL1 (UniProt Q9BYD6): the “dose-dependent thermal stabilisation call” value is inactive: 0.

For MON1B (UniProt Q7L1V2), the “dose-dependent thermal stabilisation call” value was inactive: 0.

Consider MTX1 (UniProt Q13505), for which the “dose-dependent thermal stabilisation call” value was inactive: 0.

As to MNDA (UniProt P41218), the “dose-dependent thermal stabilisation call” value is inactive: 0.

Regarding METTL9 (UniProt Q9H1A3), the “dose-dependent thermal stabilisation call” value is inactive: 0.

Take MKI67IP (UniProt Q9BYG3): the “dose-dependent thermal stabilisation call” value was inactive: 0.

Turning to MRPS35 (UniProt P82673), the “dose-dependent thermal stabilisation call” value was inactive: 0.

Consider MRPS28 (UniProt Q9Y2Q9), for which the “dose-dependent thermal stabilisation call” value is inactive: 0.

Consider MIA3 (UniProt Q5JRA6), for which the “dose-dependent thermal stabilisation call” value was inactive: 0.

MOSPD1 (UniProt Q9UJG1): the “dose-dependent thermal stabilisation call” value was inactive: 0.

For MT2A (UniProt P02795), the “dose-dependent thermal stabilisation call” value was inactive: 0.

As for MIER1 (UniProt Q8N108), the “dose-dependent thermal stabilisation call” value was inactive: 0.

Take MTRF1 (UniProt O75570): the “dose-dependent thermal stabilisation call” value is inactive: 0.

Turning to MTP18 (UniProt Q9UDX5), the “dose-dependent thermal stabilisation call” value is inactive: 0.

On to NADSYN1 (UniProt Q6IA69), for which the “dose-dependent thermal stabilisation call” value is inactive: 0.

Values taken from the supplement of paper PMC7666118.
